Data published in paper PMC4974570.
The exact form of at least one protein or probe is not confirmed.

Amino acid sequences for entries named in this document (tags omitted). A change or cut given only in a name is not applied to a line headed by its entry.
UniProt P23836: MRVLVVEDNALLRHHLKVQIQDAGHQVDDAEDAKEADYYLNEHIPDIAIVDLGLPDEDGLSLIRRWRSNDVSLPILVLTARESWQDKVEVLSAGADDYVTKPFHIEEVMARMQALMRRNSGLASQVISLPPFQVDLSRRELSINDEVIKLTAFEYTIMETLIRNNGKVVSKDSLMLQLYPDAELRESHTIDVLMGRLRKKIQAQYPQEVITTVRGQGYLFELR

Target: PhoP-His6 (phosphorylated, PhoP-P) (UniProt P23836)
Test: EMSA
Conditions: PhoP phosphorylated by acetyl phosphate, poly(dI-dC) 50 ng/ul; 50 mM Tris-Cl pH 7.5, 50 mM KCl, 1 mM DTT, 50 ug/ml BSA, 5% glycerol, 50 ng/ul poly(dI-dC), 10 fmol probe in 20 ul, 20 min at 25 C; 5% native PAGE in 0.5x TAE; recombinant protein; protein details: His6 (pET22b, pTM50); label: alpha-32P dATP Klenow fill-in; probe letters rebuilt from the primers and the genome

“AATTCATCTGGATAAATAAATTGACGGCGGCATCGGTAATTTTATATTCGTTATCATTAAAAACTAATACAGAAAAAATAAATATAATTTTGGTGAATGTTTTGACATGATTAAATCCATTTTCTTTATTTTCTTCTGACATAATACGTTACTCCCTTTAATTATTAACGATATGTTTCGCATTTTTCTTTAAACCTGCCTGTAACAGAATGTTAATAAGACATGATTGTTGTGGCAGGATCTGCAATAATTAACAATTATCCACTTCACAGAGAATGCT (double strand) [X1 (queE upstream)]”: binds.
“AATTCTATCCCATCATTACGTTTGGCATCTCCTAAACGCCAATTGTCAAAAACTCTTGTAGCATATTGTTCAATTGTCTCGTCTTTGGTTGTGGGAACAATTAATACGGCAATTTGCACTTGGGTATTATTGAAAATAGATTCTAACTTGTGCGTCAGTTCTTTCTTTTCTTGTGAGTTTAAGCTACTCGTAAGATCCGTAACTTGTTGCTGTAATTGTGGGACAATAGTTGGTTGGGCTGCAACAAAGGAACATACGAAAGTGAACATTAGTATGAAATAGCGCATTATAAATTTCTCA (double strand) [X2 (upstream of X1)]”: binds.
